The nature of the data set: peptide synthesis. The following applies: cyclisation step.

Take Ac-CQWG[Aha]KAS[Aha]FSEC-NH2: the cyclisation yield is listed as 18% (run 1) and 28% (run 2).

Source of the values: US12723059 (dated 2026).
